In PubChem BioAssay AID1487 (National Center for Advancing Translational Sciences (NCATS), 2009):
The other results are listed elsewhere or left out. These are further read-outs of the screen, such as a control signal, another cell line or another target. No call is given for them. Most of these compounds were active or inconclusive in the main read-out, so they are no random draw. Words in brackets tell the shape of the fitted curve; partial curves, single points and poor fits give uncertain potencies.

Assay: qHTS Assay for Modulators of Lamin A Splicing
Details: HeLa LMNA splicing GFP/RFP minigene ratio, 48 h
Method in brief: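 S3 HeLa cells stably expressing lamin A-EGFP splicing minigene plus DsRed2, 600 cells/well, 48 h compound exposure at 37C. Laser-scanning cytometry; analysed as GFP (500-530 nm)/RFP (575-640 nm) total intensity ratio; 0.5% DMSO vehicle.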

[1] = measured here: GFP splicing reporter channel
[2] = measured here: RFP viability control channel

SMILES	AC50 [1]	AC50 [2]
CCc1ccc(NC(=S)NC2CC3CCCC(C2)N3Cc2cccs2)cc1 (centres undefined)	20 µM [falling, partial curve, poor fit]	15.8 µM [falling, partial curve, poor fit]
Cc1ccccc1NS(=O)(=O)c1cc(C(=O)NCCSC2CCCCC2)ccc1C	12.6 µM [falling, single point]	14.1 µM [falling, partial curve, poor fit]
CS(=O)(=O)NCC(c1ccco1)N1CCN(c2ccc(F)cc2)CC1 (centres undefined)	0.00316 µM [rising, full curve, poor fit]	
Cc1cccc(C)c1NC(=O)C(=O)NCC(c1ccc2c(c1)OCO2)N1CCOCC1 (centres undefined)	0.02 µM [falling, full curve, poor fit]	0.02 µM [falling, full curve, poor fit]
Cn1c(=O)c2c(ncn2CC(=O)NCc2cccnc2)n(C)c1=O		0.0562 µM [falling, full curve, poor fit]
COc1ccc(-n2c(C)cc(C(=O)COC(=O)Cc3n[nH]c(=O)c4ccccc34)c2C)cc1	14.1 µM [rising, partial curve]	35.5 µM [rising, partial curve]
COc1ccccc1C(=O)Nc1cccc(-c2cn3ccsc3n2)c1		20 µM [rising, partial curve, poor fit]
Cc1onc(-c2ccccc2Cl)c1C(=O)N[C@H]1C(=O)N2[C@H]1SC(C)(C)[C@H]2C(=O)O	0.891 µM [falling, full curve, poor fit]	14.1 µM [falling, single point]
CC(O)CNCCCOc1cccc(Oc2ccccc2)c1 (centres undefined)	0.178 µM [falling, full curve]	0.158 µM [falling, full curve, poor fit]
CCN1CCCc2cc(CN(CCN3CCOCC3)C(=S)Nc3ccccc3OC)ccc21	25.1 µM [falling, partial curve, poor fit]	
CC(=O)N(C(C)=O)c1ncnc2c1c(-c1ccc(Cl)cc1)nn2C(C)(C)C	14.1 µM [falling, partial curve]	35.5 µM [falling, partial curve]
COc1ccc(CNc2cc(C)ccc2C)c(OC)c1OC		0.0355 µM [rising, full curve, poor fit]
O=C(Nc1ccc(S(=O)(=O)NCc2ccccc2)cc1)c1ccccc1[N+](=O)[O-]	0.0316 µM [rising, full curve, poor fit]	25.1 µM [rising, partial curve, poor fit]
CCC1(C)Cc2c(sc3nnn(CC(=O)Nc4ccc(Cl)cc4)c(=O)c23)CO1 (centres undefined)	14.1 µM [falling, single point]	
C=CCN1C(c2ccccc2)=CS/C1=C(\C#N)c1nnc2n1CCCCC2	7.08 µM [rising, partial curve, poor fit]	7.94 µM [rising, single point]
c1ccc2c(c1)nc(N1CCOCC1)c1c3ccccc3[nH]c21	35.5 µM [rising, single point]	25.1 µM [rising, single point]
COc1ccc(Br)cc1CNC(C)c1ccccc1 (centres undefined)	8.91 µM [rising, partial curve]	7.08 µM [rising, full curve, poor fit]
COc1cccc(NC(=S)N2CCN(c3ccccn3)CC2)c1		17.8 µM [rising, partial curve, poor fit]
CCOC(=O)c1c(C)nc2ccccc2c1-c1ccccc1		10 µM [rising, single point]
N#CCSc1nccc(-c2cc(Cl)sc2Cl)n1	35.5 µM [rising, single point]	
Cc1cc(C)c(C#N)c(Oc2ccccc2Br)n1	0.0794 µM [rising, partial curve, poor fit]	0.0141 µM [rising, full curve, poor fit]
COc1ccc2c(c1)c(CC(=O)Nc1ccc(C(C)=O)cc1)c(C)n2C(=O)c1ccc(Cl)cc1		15.8 µM [rising, partial curve, poor fit]
c1ccc(N2CCN(c3nc(NCc4ccco4)c4ccccc4n3)CC2)cc1		35.5 µM [rising, single point]
O=c1oc2ccccc2cc1-c1csc(Nc2ccc(O)cc2)n1		10 µM [rising, partial curve, poor fit]
Cc1ccc(-c2nnc(SCC(=O)N/N=C/c3c(C)nn(-c4ccccc4)c3C)n2-c2ccccc2)cc1		20 µM [rising, partial curve, poor fit]
CCn1c(O)c(C=Nc2ccccc2)sc1=O	0.158 µM [rising, full curve, poor fit]	
CCOC(=O)c1cnn(-c2ccc(Cl)cc2)c1C1CCN(C(=O)OC(C)(C)C)CC1		31.6 µM [rising, single point]

SMILES	AC50 [1]	AC50 [2]
CC(=O)c1cccc(N2C(=O)C3C4CCC(C4=C(C)C)C3C2=O)c1 (centres undefined)	22.4 µM [falling, single point]	0.0447 µM [falling, full curve, poor fit]
O=C(N/N=C/c1cc(Br)ccc1O)C(=O)Nc1ccccc1OC(F)(F)C(F)F	5.62 µM [falling, full curve]	6.31 µM [falling, full curve]
COc1ccc(Cn2c(SCc3cc(C)ccc3C)nc3cc(OC)c(OC)cc3c2=N)cc1	15.8 µM [falling, single point]	35.5 µM [falling, single point]
CN1CCc2c(sc(NC(=O)CSc3ccc(F)cc3)c2-c2nc3ccccc3s2)C1	11.2 µM [rising, partial curve]	
CCOc1cc(CNc2ccccc2)cc(Br)c1OCc1ccc(F)cc1		35.5 µM [rising, single point]
S=C(NCC1CCCO1)N1CCN(c2nc(-c3ccc(Cl)cc3)cs2)CC1 (centres undefined)	35.5 µM [rising, single point]	
O=C(CCCCCN1C(=O)c2ccccc2C1=O)Oc1ccc2c3c(c(=O)oc2c1)CCC3	35.5 µM [falling, single point]	
CCN(CC)c1ccc(C(=O)N/N=C(\C)c2ccc(O)cc2)cc1	31.6 µM [falling, single point]	35.5 µM [falling, single point]
Cn1nc(C(C)(C)C)cc1C(=O)NCc1ccc(N2CCCC2=O)cc1		2 µM [rising, full curve]
COc1ccc(/C=N/NC(=O)c2ccn[nH]2)cc1COc1ccc(Cl)cc1Cl		28.2 µM [rising, single point]
Cc1ccc(C)c(N2CCN(C(=O)CCNS(=O)(=O)c3ccc4c(c3)CCN4C(=O)C3CC3)CC2)c1	35.5 µM [falling, partial curve]	35.5 µM [falling, partial curve, poor fit]
O=C(C1CCC(Cn2c(=O)c3sccc3n(Cc3ccccc3)c2=O)CC1)N1CCCCC1 (centres undefined)		35.5 µM [falling, single point]
Cc1ccc(C(=O)N2CCN(S(=O)(=O)N3CCOCC3)CC2)cc1	2 µM [rising, single point]	
COc1ccc(OC)c(NC(=O)CC2C(=O)NCCN2C(=O)C(F)(F)F)c1 (centres undefined)		0.00447 µM [falling, full curve, poor fit]
COc1ccc2c(=O)c(Oc3ccc(C(=O)O)cc3)c(C(F)(F)F)oc2c1	0.0282 µM [falling, full curve, poor fit]	
COc1ccc(Br)cc1C(=O)Nc1cccc(NC(=O)c2ccco2)c1		14.1 µM [rising, single point]
O=C(Nc1c(C(=O)O)[nH]c2ccccc12)NC1CCCCC1		0.0355 µM [falling, full curve, poor fit]
O=C(c1cccc(S(=O)(=O)NCCOc2ccccc2)c1)N1CCN(c2ncccn2)CC1	4.47 µM [rising, partial curve]	17.8 µM [rising, partial curve]
COc1ccccc1N(CC(=O)Nc1ccc(S(=O)(=O)N2CCCCC2)cc1)S(C)(=O)=O		15.8 µM [rising, single point]
Cc1ccc(NC(=O)c2cnc(SCC(=O)N3CCOCC3)n(C)c2=O)cc1C	2.51 µM [falling, partial curve]	35.5 µM [falling, single point]
O=C(CCCc1nc(-c2ccc(Cl)cc2)no1)N1CCOCC1		12.6 µM [rising, partial curve]
CCCc1cc(-c2n[nH]c(C)c2-c2ccc(C(=O)OCC)o2)c(O)cc1O		12.6 µM [rising, single point]
CCn1c(=O)c(C(=O)Nn2c(C)nc3ccccc3c2=O)c(O)c2ccccc21	25.1 µM [rising, single point]	20 µM [rising, single point]
S=C(NCCc1ccccc1)NC1CCCCCC1		12.6 µM [rising, partial curve, poor fit]
CN(C(=O)CSc1nnc(-c2ccc(F)cc2)c2ccccc12)C1CCS(=O)(=O)C1 (centres undefined)		11.2 µM [rising, partial curve]
CNS(=O)(=O)c1cccc(C(=O)Nc2cccc(Cl)c2)c1		35.5 µM [rising, single point]
COc1ccc(NC(=O)c2cc3n(n2)C(C(F)(F)F)CC(c2ccc4c(c2)OCO4)N3)cc1OC (centres undefined)		0.562 µM [rising, full curve, poor fit]

Retrieved by structure from the entries so far, 3 records:
SMILES	AC50 [1]	AC50 [2]
S=C(NCCc1ccccc1)NC1CCCCCC1		12.6 µM [rising, partial curve, poor fit]
O=C(c1cccc(S(=O)(=O)NCCOc2ccccc2)c1)N1CCN(c2ncccn2)CC1	4.47 µM [rising, partial curve]	17.8 µM [rising, partial curve]
CCOC(=O)c1cnn(-c2ccc(Cl)cc2)c1C1CCN(C(=O)OC(C)(C)C)CC1		31.6 µM [rising, single point]
